± gives the standard deviation of the averaged measurements. The list shows a part of the results, in another mix than the full data.
Columns and labels:
Assay in all cases: NP40-soluble protein abundance relative to vehicle (solubility fold change) (ratio); higher = more soluble protein in presence of AMP-PNP
UniProt Q6UX04 = target: T1, UniProt Q6UX04
T1 sequence (whole entry): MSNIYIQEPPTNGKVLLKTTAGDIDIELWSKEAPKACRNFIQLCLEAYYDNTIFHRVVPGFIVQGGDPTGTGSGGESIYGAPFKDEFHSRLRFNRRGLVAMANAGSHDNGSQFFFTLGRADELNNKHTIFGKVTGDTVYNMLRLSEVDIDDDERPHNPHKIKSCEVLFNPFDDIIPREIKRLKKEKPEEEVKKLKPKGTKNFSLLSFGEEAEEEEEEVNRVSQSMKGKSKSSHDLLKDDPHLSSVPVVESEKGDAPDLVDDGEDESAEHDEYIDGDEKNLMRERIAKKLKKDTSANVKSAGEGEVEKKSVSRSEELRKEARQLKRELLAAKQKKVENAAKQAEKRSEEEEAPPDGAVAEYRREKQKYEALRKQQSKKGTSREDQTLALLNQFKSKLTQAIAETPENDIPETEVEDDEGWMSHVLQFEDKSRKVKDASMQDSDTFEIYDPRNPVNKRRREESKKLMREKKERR
Summary of the method: (§1)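 Across three independent experiments, values are fold changes against the detergent-processed vehicle for each replicate, based on vsn-normalised intensities. The samples were Jurkat crude lysate treated with eight concentrations (0.1 to 10 mM) for 10 min at room temperature and then 3 min at 37 °C. Lysate was solubilised with 0.8% NP40 and benzonase, ultracentrifuged, and the supernatant analysed by TMT-labelled LC-MS/MS.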

UniProt Q7L8W6 = target: T2, UniProt Q7L8W6
T2 sequence (whole entry): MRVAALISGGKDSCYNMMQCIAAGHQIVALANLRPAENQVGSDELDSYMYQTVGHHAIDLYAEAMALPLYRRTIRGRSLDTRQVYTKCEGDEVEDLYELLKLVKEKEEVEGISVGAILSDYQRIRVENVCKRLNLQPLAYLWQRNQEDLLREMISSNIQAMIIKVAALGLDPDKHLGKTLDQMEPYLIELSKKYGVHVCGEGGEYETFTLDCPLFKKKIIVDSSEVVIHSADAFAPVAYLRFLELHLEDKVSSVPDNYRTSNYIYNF
Summary of the method: as §1

[1] = target: T3, UniProt Q7Z3K3 and related entries
T3 sequence (whole entry): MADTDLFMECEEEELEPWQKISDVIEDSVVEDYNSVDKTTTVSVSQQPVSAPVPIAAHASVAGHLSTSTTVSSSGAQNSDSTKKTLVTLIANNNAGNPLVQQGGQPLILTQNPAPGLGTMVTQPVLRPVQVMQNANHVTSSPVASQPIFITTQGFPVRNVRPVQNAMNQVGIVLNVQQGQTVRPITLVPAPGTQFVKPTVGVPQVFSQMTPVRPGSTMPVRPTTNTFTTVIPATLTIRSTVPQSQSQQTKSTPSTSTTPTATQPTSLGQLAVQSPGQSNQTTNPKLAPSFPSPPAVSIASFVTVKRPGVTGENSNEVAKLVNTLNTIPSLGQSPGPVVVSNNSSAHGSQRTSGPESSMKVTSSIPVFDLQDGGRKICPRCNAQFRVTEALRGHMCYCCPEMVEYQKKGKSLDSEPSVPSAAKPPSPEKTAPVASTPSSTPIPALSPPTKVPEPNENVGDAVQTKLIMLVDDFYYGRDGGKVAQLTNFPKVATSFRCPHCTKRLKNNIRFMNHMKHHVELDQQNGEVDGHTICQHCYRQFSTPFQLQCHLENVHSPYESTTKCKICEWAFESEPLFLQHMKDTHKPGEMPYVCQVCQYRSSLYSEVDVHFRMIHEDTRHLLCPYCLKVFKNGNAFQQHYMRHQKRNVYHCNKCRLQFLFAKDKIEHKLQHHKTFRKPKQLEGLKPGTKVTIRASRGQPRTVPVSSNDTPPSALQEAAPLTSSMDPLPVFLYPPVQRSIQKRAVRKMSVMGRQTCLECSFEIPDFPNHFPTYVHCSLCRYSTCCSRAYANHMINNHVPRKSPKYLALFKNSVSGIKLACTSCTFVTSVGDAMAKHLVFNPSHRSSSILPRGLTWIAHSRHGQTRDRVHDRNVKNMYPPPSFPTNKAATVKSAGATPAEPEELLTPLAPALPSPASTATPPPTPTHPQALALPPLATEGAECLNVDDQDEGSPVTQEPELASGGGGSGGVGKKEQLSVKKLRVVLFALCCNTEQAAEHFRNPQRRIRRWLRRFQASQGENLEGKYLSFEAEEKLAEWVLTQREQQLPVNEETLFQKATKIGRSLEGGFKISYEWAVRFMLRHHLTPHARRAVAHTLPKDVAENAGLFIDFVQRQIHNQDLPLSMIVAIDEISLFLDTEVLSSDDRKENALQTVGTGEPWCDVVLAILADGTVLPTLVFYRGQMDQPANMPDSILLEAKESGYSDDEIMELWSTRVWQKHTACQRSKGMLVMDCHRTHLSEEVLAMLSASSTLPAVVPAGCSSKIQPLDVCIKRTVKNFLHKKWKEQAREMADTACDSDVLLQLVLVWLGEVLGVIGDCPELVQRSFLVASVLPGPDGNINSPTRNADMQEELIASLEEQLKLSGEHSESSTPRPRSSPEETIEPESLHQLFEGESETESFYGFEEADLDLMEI
Summary of the method: as §1

[2] = target: T4, UniProt Q7Z412 and related entries
T4 sequence (whole entry): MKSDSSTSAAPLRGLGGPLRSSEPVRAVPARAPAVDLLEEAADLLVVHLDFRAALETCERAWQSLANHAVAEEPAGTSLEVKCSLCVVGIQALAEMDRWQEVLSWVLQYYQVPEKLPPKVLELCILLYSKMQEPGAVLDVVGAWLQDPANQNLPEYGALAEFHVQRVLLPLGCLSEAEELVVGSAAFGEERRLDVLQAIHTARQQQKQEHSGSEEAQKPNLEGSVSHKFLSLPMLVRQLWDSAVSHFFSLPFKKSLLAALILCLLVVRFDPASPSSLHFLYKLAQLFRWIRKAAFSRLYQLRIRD
Summary of the method: as §1

[3] = target: T5, UniProt Q7Z4H3 and related entries
T5 sequence (whole entry): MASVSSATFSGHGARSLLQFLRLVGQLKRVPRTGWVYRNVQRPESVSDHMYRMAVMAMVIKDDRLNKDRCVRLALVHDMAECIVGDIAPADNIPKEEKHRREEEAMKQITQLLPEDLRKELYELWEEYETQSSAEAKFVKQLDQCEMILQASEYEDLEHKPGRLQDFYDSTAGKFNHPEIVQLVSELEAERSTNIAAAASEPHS
Summary of the method: as §1

SMILES: Nc1ncnc2c1ncn2[C@@H]1O[C@H](COP(=O)(O)OP(=O)(O)NP(=O)(O)O)[C@@H](O)[C@H]1O [adenylyl imidodiphosphate]
- NP40-soluble protein abundance (UniProt Q6UX04; concentration: 1mM): 1.06 ± 0.028
- NP40-soluble protein abundance (UniProt Q6UX04; concentration: 2mM): 1.09 ± 0.057
- NP40-soluble protein abundance (UniProt Q6UX04; concentration: 4mM): 1.02 ± 0.014
- NP40-soluble protein abundance (UniProt Q6UX04; concentration: 6mM): 1.05 ± 0.051
- NP40-soluble protein abundance (UniProt Q6UX04; concentration: 8mM): 1.02 ± 0.036
- NP40-soluble protein abundance (UniProt Q6UX04; concentration: 10mM): 1.03 ± 0.028
- NP40-soluble protein abundance (UniProt Q7L8W6; concentration: 1mM): 0.964 ± 0.013
- NP40-soluble protein abundance (UniProt Q7L8W6; concentration: 2mM): 0.944 ± 0.059
- NP40-soluble protein abundance (UniProt Q7L8W6; concentration: 4mM): 0.967 ± 0.037
- NP40-soluble protein abundance (UniProt Q7L8W6; concentration: 6mM): 0.988 ± 0.018
- NP40-soluble protein abundance (UniProt Q7L8W6; concentration: 8mM): 0.995 ± 0.017
- NP40-soluble protein abundance (UniProt Q7L8W6; concentration: 10mM): 0.9622 ± 0.0073
- NP40-soluble protein abundance ([1]; concentration: 1mM): 1.06 ± 0.011
- NP40-soluble protein abundance ([1]; concentration: 2mM): 1.1 ± 0.02
- NP40-soluble protein abundance ([1]; concentration: 4mM): 1.177 ± 0.0098
- NP40-soluble protein abundance ([1]; concentration: 6mM): 1.23 ± 0.034
- NP40-soluble protein abundance ([1]; concentration: 8mM): 1.26 ± 0.037
- NP40-soluble protein abundance ([1]; concentration: 10mM): 1.32 ± 0.063
- NP40-soluble protein abundance ([2]; concentration: 1mM): 1.05 ± 0.022
- NP40-soluble protein abundance ([2]; concentration: 2mM): 1.09 ± 0.025
- NP40-soluble protein abundance ([2]; concentration: 4mM): 1.06 ± 0.053
- NP40-soluble protein abundance ([2]; concentration: 6mM): 1.05 ± 0.055
- NP40-soluble protein abundance ([2]; concentration: 8mM): 1.03 ± 0.038
- NP40-soluble protein abundance ([2]; concentration: 10mM): 1.06 ± 0.039
- NP40-soluble protein abundance ([3]; concentration: 1mM): 0.96 ± 0.09
- NP40-soluble protein abundance ([3]; concentration: 2mM): 1.05 ± 0.017
- NP40-soluble protein abundance ([3]; concentration: 4mM): 0.951 ± 0.12
- NP40-soluble protein abundance ([3]; concentration: 6mM): 0.89 ± 0.039
- NP40-soluble protein abundance ([3]; concentration: 8mM): 0.878 ± 0.044
- NP40-soluble protein abundance ([3]; concentration: 10mM): 0.824 ± 0.081

Source: the supplement of paper PMC6411743
